From patent US12729225B2, “Non-canonical SWI/SNF complex and uses thereof” (Dana-Farber Cancer Institute, Inc., priority 2018, dated 2026)

B1: SLC25A40 (protein, UniProt Q8TBP6 1-338, looked up)
Mitochondrial glutathione …: MDPETRGQEIIKVTPLQQMLASCTGAILTSVIVTPLDVVKIRLQAQNNPLPKGKCFVYSNGLMDHLCVCEEGGNKLWYKKPGNFQGTLDAFFKIIRNEGIKSLWSGLPPTLVMAVPATVIYFTCYDQLSALLRSKLGENETCIPIVAGIVARFGAVTVISPLELIRTKMQSKKFSYVELHRFVSKKVSEDGWISLWRGWAPTVLRDVPFSAMYWYNYEILKKWLCEKSGLYEPTFMINFTSGALSGSFAAVATLPFDVVKTQKQTQLWTYESHKISMPLHMSTWIIMKNIVAKNGFSGLFSGLIPRLIKIAPACAIMISTYEFGKAFFQKQNVRRQQY
B2: SSBP1 (protein, UniProt Q04837 17-148, looked up)
Single-stranded DNA-binding …: ESETTTSLVLERSLNRVHLLGRVGQDPVLRQVEGKNPVTIFSLATNEMWRSGDSEVYQLGDVSQKTTWHRISVFRPGLRDVAYQYVKKGSRIYLEGKIDYGEYMDKNNVRRQATTIIADNIIFLSDQTKEKE
B3: AAAS (protein, UniProt Q9NRG9 2-546, looked up)
Aladin: CSLGLFPPPPPRGQVTLYEHNNELVTGSSYESPPPDFRGQWINLPVLQLTKDPLKTPGRLDHGTRTAFIHHREQVWKRCINIWRDVGLFGVLNEIANSEEEVFEWVKTASGWALALCRWASSLHGSLFPHLSLRSEDLIAEFAQVTNWSSCCLRVFAWHPHTNKFAVALLDDSVRVYNASSTIVPSLKHRLQRNVASLAWKPLSASVLAVACQSCILIWTLDPTSLSTRPSSGCAQVLSHPGHTPVTSLAWAPSGGRLLSASPVDAAIRVWDVSTETCVPLPWFRGGGVTNLLWSPDGSKILATTPSAVFRVWEAQMWTCERWPTLSGRCQTGCWSPDGSRLLFTVLGEPLIYSLSFPERCGEGKGCVGGAKSATIVADLSETTIQTPDGEERLGGEAHSMVWDPSGERLAVLMKGKPRVQDGKPVILLFRTRNSPVFELLPCGIIQGEPGAQPQLITFHPSFNKGALLSVGWSTGRIAHIPLYFVNAQFPRFSPVLGRAQEPPAGGGGSIHDLPLFTETSPTSAPWDPLPGPPPVLPHSPHSHL
B4: NPEPPS (protein, UniProt P55786 1-919, looked up)
Puromycin-sensitive …: MWLAAAAPSLARRLLFLGPPPPPLLLLVFSRSSRRRLHSLGLAAMPEKRPFERLPADVSPINYSLCLKPDLLDFTFEGKLEAAAQVRQATNQIVMNCADIDIITASYAPEGDEEIHATGFNYQNEDEKVTLSFPSTLQTGTGTLKIDFVGELNDKMKGFYRSKYTTPSGEVRYAAVTQFEATDARRAFPCWDEPAIKATFDISLVVPKDRVALSNMNVIDRKPYPDDENLVEVKFARTPVMSTYLVAFVVGEYDFVETRSKDGVCVRVYTPVGKAEQGKFALEVAAKTLPFYKDYFNVPYPLPKIDLIAIADFAAGAMENWGLVTYRETALLIDPKNSCSSSRQWVALVVGHELAHQWFGNLVTMEWWTHLWLNEGFASWIEYLCVDHCFPEYDIWTQFVSADYTRAQELDALDNSHPIEVSVGHPSEVDEIFDAISYSKGASVIRMLHDYIGDKDFKKGMNMYLTKFQQKNAATEDLWESLENASGKPIAAVMNTWTKQMGFPLIYVEAEQVEDDRLLRLSQKKFCAGGSYVGEDCPQWMVPITISTSEDPNQAKLKILMDKPEMNVVLKNVKPDQWVKLNLGTVGFYRTQYSSAMLESLLPGIRDLSLPPVDRLGLQNDLFSLARAGIISTVEVLKVMEAFVNEPNYTVWSDLSCNLGILSTLLSHTDFYEEIQEFVKDVFSPIGERLGWDPKPGEGHLDALLRGLVLGKLGKAGHKATLEEARRRFKDHVEGKQILSADLRSPVYLTVLKHGDGTTLDIMLKLHKQADMQEEKNRIERVLGATLLPDLIQKVLTFALSEEVRPQDTVSVIGGVAGGSKHGRKAAWKFIKDNWEELYNRYQGGFLISRLIKLSVEGFAVDKMAGEVKAFFESHPAPSAERTIQQCCENILLNAAWLKRDAESIHQYLLQRKASPPTV
B5: PTRH2 (protein, UniProt Q9Y3E5 1-179, looked up)
Peptidyl-tRNA hydrolase 2, …: MPSKSLVMEYLAHPSTLGLAVGVACGMCLGWSLRVCFGMLPKSKTSKTHTDTESEASILGDSGEYKMILVVRNDLKMGKGKVAAQCSHAAVSAYKQIQRRNPEMLKQWEYCGQPKVVVKAPDEETLIALLAHAKMLGLTVSLIQDAGRTQIAPGSQTVLGIGPGPADLIDKVTGHLKLY
B6: RPS10P5 (protein, UniProt Q9NQ39 1-176, looked up)
Putative ribosomal protein …: MLMPKKNRIAIHELLFKEGVMVAKKDVHMPKHPELADKNVPNLHVMKAMQSLKSRGCVKEQFAWRHFYWYLTNEGSQYLRDYLHLPPEIVPATLHLPPEIVPATLHRSRPETGRPRPKGLEGKRPARLTRREADRDTYRRCSVPPGADKKAEAGAGSATEFQFRGRCGRGRGQPPQ
B7: RBM27 (protein, UniProt Q9P2N5 1-1060, looked up)
RNA-binding protein 27: MLIEDVDALKSWLAKLLEPICDADPSALANYVVALVKKDKPEKELKAFCADQLDVFLQKETSGFVDKLFESLYTKNYLPLLEPVKPEPKPLVQEKEEIKEEVFQEPAEEERDGRKKKYPSPQKTRSESSERRTREKKREDGKWRDYDRYYERNELYREKYDWRRGRSKSRSKSRGLSRSRSRSRGRSKDRDPNRNVEHRERSKFKSERNDLESSYVPVSAPPPNSSEQYSSGAQSIPSTVTVIAPAHHSENTTESWSNYYNNHSSSNSFGRNLPPKRRCRDYDERGFCVLGDLCQFDHGNDPLVVDEVALPSMIPFPPPPPGLPPPPPPGMLMPPMPGPGPGPGPGPGPGPGPGPGPGHSMRLPVPQGHGQPPPSVVLPIPRPPITQSSLINSRDQPGTSAVPNLASVGTRLPPPLPQNLLYTVSERQPMYSREHGAAASERLQLGTPPPLLAARLVPPRNLMGSSIGYHTSVSSPTPLVPDTYEPDGYNPEAPSITSSGRSQYRQFFSRTQTQRPNLIGLTSGDMDVNPRAANIVIQTEPPVPVSINSNITRVVLEPDSRKRAMSGLEGPLTKKPWLGKQGNNNQNKPGFLRKNQYTNTKLEVKKIPQELNNITKLNEHFSKFGTIVNIQVAFKGDPEAALIQYLTNEEARKAISSTEAVLNNRFIRVLWHRENNEQPTLQSSAQLLLQQQQTLSHLSQQHHHLPQHLHQQQVLVAQSAPSTVHGGIQKMMSKPQTSGAYVLNKVPVKHRLGHAGGNQSDASHLLNQSGGAGEDCQIFSTPGHPKMIYSSSNLKTPSKLCSGSKSHDVQEVLKKKQEAMKLQQDMRKKRQEVLEKQIECQKMLISKLEKNKNMKPEERANIMKTLKELGEKISQLKDELKTSSAVSTPSKVKTKTEAQKELLDTELDLHKRLSSGEDTTELRKKLSQLQVEAARLGILPVGRGKTMSSQGRGRGRGRGGRGRGSLNHMVVDHRPKALTVGGFIEEEKEDLLQHFSTANQGPKFKDRRLQISWHKPKVPSISTETEEEEVKEEETETSDLFLPDDDDEDEDEYESRSWRR
B8: SREK1 (protein, UniProt Q8WXA9 1-508, looked up)
Splicing regulatory …: MTSLMPGAGLLPIPTPNPLTTLGVSLSSLGAIPAAALDPNIATLGEIPQPPLMGNVDPSKIDEIRRTVYVGNLNSQTTTADQLLEFFKQVGEVKFVRMAGDETQPTRFAFVEFADQNSVPRALAFNGVMFGDRPLKINHSNNAIVKPPEMTPQAAAKELEEVMKRVREAQSFISAAIEPESGKSNERKGGRSRSHTRSKSRSSSKSHSRRKRSQSKHRSRSHNRSRSRQKDRRRSKSPHKKRSKSRERRKSRSRSHSRDKRKDTREKIKEKERVKEKDREKEREREKEREKEKERGKNKDRDKEREKDREKDKEKDREREREKEHEKDRDKEKEKEQDKEKEREKDRSKEIDEKRKKDKKSRTPPRSYNASRRSRSSSRERRRRRSRSSSRSPRTSKTIKRKSSRSPSPRSRNKKDKKREKERDHISERRERERSTSMRKSSNDRDGKEKLEKNSTSLKEKEHNKEPDSSVSKEVDDKDAPRTEENKIQHNGNCQLNEENLSTKTEAV
B9: ERLIN1 (protein, UniProt O75477 1-348, looked up)
Erlin-1: MNMTQARVLVAAVVGLVAVLLYASIHKIEEGHLAVYYRGGALLTSPSGPGYHIMLPFITTFRSVQTTLQTDEVKNVPCGTSGGVMIYIDRIEVVNMLAPYAVFDIVRNYTADYDKTLIFNKIHHELNQFCSAHTLQEVYIELFDQIDENLKQALQKDLNLMAPGLTIQAVRVTKPKIPEAIRRNFELMEAEKTKLLIAAQKQKVVEKEAETERKKAVIEAEKIAQVAKIRFQQKVMEKETEKRISEIEDAAFLAREKAKADAEYYAAHKYATSNKHKLTPEYLELKKYQAIASNSKIYFGSNIPNMFVDSSCALKYSDIRTGRESSLPSKEALEPSGENVIQNKESTG
B10: HK1 (protein, UniProt P19367 1-917, looked up)
Hexokinase-1: MIAAQLLAYYFTELKDDQVKKIDKYLYAMRLSDETLIDIMTRFRKEMKNGLSRDFNPTATVKMLPTFVRSIPDGSEKGDFIALDLGGSSFRILRVQVNHEKNQNVHMESEVYDTPENIVHGSGSQLFDHVAECLGDFMEKRKIKDKKLPVGFTFSFPCQQSKIDEAILITWTKRFKASGVEGADVVKLLNKAIKKRGDYDANIVAVVNDTVGTMMTCGYDDQHCEVGLIIGTGTNACYMEELRHIDLVEGDEGRMCINTEWGAFGDDGSLEDIRTEFDREIDRGSLNPGKQLFEKMVSGMYLGELVRLILVKMAKEGLLFEGRITPELLTRGKFNTSDVSAIEKNKEGLHNAKEILTRLGVEPSDDDCVSVQHVCTIVSFRSANLVAATLGAILNRLRDNKGTPRLRTTVGVDGSLYKTHPQYSRRFHKTLRRLVPDSDVRFLLSESGSGKGAAMVTAVAYRLAEQHRQIEETLAHFHLTKDMLLEVKKRMRAEMELGLRKQTHNNAVVKMLPSFVRRTPDGTENGDFLALDLGGTNFRVLLVKIRSGKKRTVEMHNKIYAIPIEIMQGTGEELFDHIVSCISDFLDYMGIKGPRMPLGFTFSFPCQQTSLDAGILITWTKGFKATDCVGHDVVTLLRDAIKRREEFDLDVVAVVNDTVGTMMTCAYEEPTCEVGLIVGTGSNACYMEEMKNVEMVEGDQGQMCINMEWGAFGDNGCLDDIRTHYDRLVDEYSLNAGKQRYEKMISGMYLGEIVRNILIDFTKKGFLFRGQISETLKTRGIFETKFLSQIESDRLALLQVRAILQQLGLNSTCDDSILVKTVCGVVSRRAAQLCGAGMAAVVDKIRENRGLDRLNVTVGVDGTLYKLHPHFSRIMHQTVKELSPKCNVSFLLSEDGSGKGAALITAVGVRLRTEASS
B11: HNRNPH3 (protein, UniProt P31942 1-346, looked up)
Heterogeneous nuclear …: MDWVMKHNGPNDASDGTVRLRGLPFGCSKEEIVQFFQGLEIVPNGITLTMDYQGRSTGEAFVQFASKEIAENALGKHKERIGHRYIEIFRSSRSEIKGFYDPPRRLLGQRPGPYDRPIGGRGGYYGAGRGSMYDRMRRGGDGYDGGYGGFDDYGGYNNYGYGNDGFDDRMRDGRGMGGHGYGGAGDASSGFHGGHFVHMRGLPFRATENDIANFFSPLNPIRVHIDIGADGRATGEADVEFVTHEDAVAAMSKDKNNMQHRYIELFLNSTPGGGSGMGGSGMGGYGRDGMDNQGGYGSVGRMGMGNNYSGGYGTPDGLGGYGRGGGGSGGYYGQGGMSGGGWRGMY

Tested on: mSWI/SNF complexes
Assay: mSWI/SNF complex purification with HA-tagged baits and mass spectrometry (peptide counts)
Parameters: species or system human
Conditions: 293_HA-BRD7 bait purification, mass spectrometry; total peptide count per identified protein

Total, 1:
B1
B2
B3
B4
B5
B6
B7
B8
B9
B10
B11

Same assay, conditions: 293_HA-BRD7 bait purification, mass spectrometry; unique peptide count per identified protein

Unique, 1:
B1
B2
B3
B4
B5
B6
B7
B8
B9
B10
B11
